From PMC10754003

Key:
[1] = target: T1, Arabidopsis TPL (AtTPL), yeast two-hybrid fusion (Arabidopsis thaliana) (UniProt Q94AI7); test: two-hybrid
T1 sequence: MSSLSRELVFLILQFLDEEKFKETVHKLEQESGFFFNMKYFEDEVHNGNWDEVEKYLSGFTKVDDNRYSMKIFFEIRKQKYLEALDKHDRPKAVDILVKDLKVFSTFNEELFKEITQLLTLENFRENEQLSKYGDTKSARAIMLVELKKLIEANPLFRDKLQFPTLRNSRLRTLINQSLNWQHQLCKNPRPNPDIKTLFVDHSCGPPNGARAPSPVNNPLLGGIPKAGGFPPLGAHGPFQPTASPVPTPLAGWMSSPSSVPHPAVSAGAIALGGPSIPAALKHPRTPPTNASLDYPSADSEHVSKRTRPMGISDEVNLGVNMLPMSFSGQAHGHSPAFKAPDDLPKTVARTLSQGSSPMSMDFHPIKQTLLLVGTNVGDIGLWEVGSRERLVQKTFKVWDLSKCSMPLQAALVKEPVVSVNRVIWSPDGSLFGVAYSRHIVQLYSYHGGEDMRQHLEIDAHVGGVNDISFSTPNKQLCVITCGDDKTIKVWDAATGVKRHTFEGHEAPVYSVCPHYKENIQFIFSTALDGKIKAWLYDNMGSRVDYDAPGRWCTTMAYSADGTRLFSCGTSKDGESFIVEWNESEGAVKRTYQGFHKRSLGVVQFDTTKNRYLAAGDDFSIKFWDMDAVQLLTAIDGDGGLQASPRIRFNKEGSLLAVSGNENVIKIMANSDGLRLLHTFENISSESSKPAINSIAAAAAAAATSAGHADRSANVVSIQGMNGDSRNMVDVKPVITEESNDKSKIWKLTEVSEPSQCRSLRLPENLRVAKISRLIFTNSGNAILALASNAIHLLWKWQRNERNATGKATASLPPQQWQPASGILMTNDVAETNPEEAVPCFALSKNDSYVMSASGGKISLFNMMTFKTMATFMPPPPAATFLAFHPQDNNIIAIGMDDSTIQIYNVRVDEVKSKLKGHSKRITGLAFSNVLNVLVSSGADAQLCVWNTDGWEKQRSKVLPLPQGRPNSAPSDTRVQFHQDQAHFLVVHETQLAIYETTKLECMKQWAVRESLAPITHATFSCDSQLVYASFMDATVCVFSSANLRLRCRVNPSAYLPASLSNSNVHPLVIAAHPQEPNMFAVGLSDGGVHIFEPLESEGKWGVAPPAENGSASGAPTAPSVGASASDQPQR

[2] = target: T2, Arabidopsis TPR1, full length, yeast two-hybrid fusion (Arabidopsis thaliana) (UniProt Q0WV90); test: two-hybrid
T2 sequence: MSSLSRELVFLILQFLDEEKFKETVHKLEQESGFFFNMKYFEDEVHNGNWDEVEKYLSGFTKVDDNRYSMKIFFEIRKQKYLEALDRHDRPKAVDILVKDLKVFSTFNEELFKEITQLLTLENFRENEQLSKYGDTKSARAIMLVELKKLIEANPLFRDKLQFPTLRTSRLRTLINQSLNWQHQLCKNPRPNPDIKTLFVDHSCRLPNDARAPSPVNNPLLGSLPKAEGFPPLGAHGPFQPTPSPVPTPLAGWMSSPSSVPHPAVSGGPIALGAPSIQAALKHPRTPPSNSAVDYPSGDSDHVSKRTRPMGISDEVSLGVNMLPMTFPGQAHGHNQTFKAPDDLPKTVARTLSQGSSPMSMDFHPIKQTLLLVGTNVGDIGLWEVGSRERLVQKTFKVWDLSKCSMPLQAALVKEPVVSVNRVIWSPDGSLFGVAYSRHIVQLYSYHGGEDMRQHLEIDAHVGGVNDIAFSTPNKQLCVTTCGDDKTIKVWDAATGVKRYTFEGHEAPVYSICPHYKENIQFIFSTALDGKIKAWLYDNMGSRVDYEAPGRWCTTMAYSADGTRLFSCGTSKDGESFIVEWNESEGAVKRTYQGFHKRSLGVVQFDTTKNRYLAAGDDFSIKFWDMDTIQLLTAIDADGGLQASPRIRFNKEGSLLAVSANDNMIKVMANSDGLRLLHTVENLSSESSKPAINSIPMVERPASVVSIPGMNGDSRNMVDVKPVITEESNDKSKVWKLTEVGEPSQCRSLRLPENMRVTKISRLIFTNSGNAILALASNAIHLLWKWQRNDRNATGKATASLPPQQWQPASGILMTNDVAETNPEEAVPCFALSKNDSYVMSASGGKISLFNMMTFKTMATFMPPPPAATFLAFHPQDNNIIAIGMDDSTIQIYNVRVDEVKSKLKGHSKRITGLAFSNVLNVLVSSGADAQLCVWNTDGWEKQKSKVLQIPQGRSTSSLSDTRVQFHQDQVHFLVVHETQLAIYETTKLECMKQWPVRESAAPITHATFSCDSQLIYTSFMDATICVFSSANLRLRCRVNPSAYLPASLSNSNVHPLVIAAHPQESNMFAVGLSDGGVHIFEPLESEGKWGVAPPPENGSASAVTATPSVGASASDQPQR

In the case of “SIX8Foa, yeast two-hybrid fusion (Fusarium oxysporum strain Fo5176)”, the binding [1] is reported as “binds” and the binding [2] is reported as “binds”.

No constants are given. Whether binding was seen depends on the method and setting. A result given as binding can be weak or reduced; the word gives no strength. Sequences can lack the tags named with a protein.
